Results are given in words; binding and its absence hold for the method and conditions named. In cells and extracts the contact can be indirect. A result given as binding can be weak or reduced; the word gives no strength. Blank lines part the entries; values can stand above or below the binder they belong to.
Target: PP1c (human (endogenous in HCC94 and CaSki))
Assay: co-IP; endogenous proteins; lysates of cancer stem cells or bulk cells treated with cisplatin for 24 h, or of cancer stem cells transfected with PCK1 siRNA; IgG or IP antibody overnight at 4 °C, Protein A/G beads 2 h at 4 °C, five washes with TBST; western blot

binding: binds
B1: PYGL (enzyme, UniProt P06737 1-847)
chain: MAKPLTDQEKRRQISIRGIVGVENVAELKKSFNRHLHFTLVKDRNVATTRDYYFALAHTVRDHLVGRWIRTQQHYYDKCPKRVYYLSLEFYMGRTLQNTMINLGLQNACDEAIYQLGLDIEELEEIEEDAGLGNGGLGRLAACFLDSMATLGLAAYGYGIRYEYGIFNQKIRDGWQVEEADDWLRYGNPWEKSRPEFMLPVHFYGKVEHTNTGTKWIDTQVVLALPYDTPVPGYMNNTVNTMRLWSARAPNDFNLRDFNVGDYIQAVLDRNLAENISRVLYPNDNFFEGKELRLKQEYFVVAATLQDIIRRFKASKFGSTRGAGTVFDAFPDQVAIQLNDTHPALAIPELMRIFVDIEKLPWSKAWELTQKTFAYTNHTVLPEALERWPVDLVEKLLPRHLEIIYEINQKHLDRIVALFPKDVDRLRRMSLIEEEGSKRINMAHLCIVGSHAVNGVAKIHSDIVKTKVFKDFSELEPDKFQNKTNGITPRRWLLLCNPGLAELIAEKIGEDYVKDLSQLTKLHSFLGDDVFLRELAKVKQENKLKFSQFLETEYKVKINPSSMFDVQVKRIHEYKRQLLNCLHVITMYNRIKKDPKKLFVPRTVIIGGKAAPGYHMAKMIIKLITSVADVVNNDPMVGSKLKVIFLENYRVSLAEKVIPATDLSEQISTAGTEASGTGNMKFMLNGALTIGTMDGANVEMAEEAGEENLFIFGMRIDDVAALDKKGYEAKEYYEALPELKLVIDQIDNGFFSPKQPDLFKDIINMLFYHDRFKVFADYEAYVKCQDKVSQLYMNPKAWNTMVLKNIAASGKFSSDRTIKEYAQNIWNVEPSDLKISLSNESNKVNGN

binding: binds
B2: phosphorylated glycogen phosphorylase (pPYGL) (enzyme, UniProt P06737 1-847)
chain: B1 chain
modifications: phosphorylated (site not given)
